{"source": "PubChem BioAssay AID2685", "about": "(National Center for Advancing Translational Sciences (NCATS), 2010)", "assay": "qHTS Assay for Lipid Storage Modulators in Drosophila S3 Cells;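 as to cell number change: cells counted by Cell Tracker Red CMTPX staining in the red channel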", "conditions": "BODIPY lipid droplet fluorescence, 18-24 h; for cell number change: measured here: cell count max response, cells fed with added oleic acid", "how_it_was_run": "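Laser-scanning cytometry quantifies lipid droplet accumulation (500–530 nm total intensity; droplet/cell object ratio) in oleic acid-fed (400 uM added) Drosophila S3 cells treated with a concentration series. 20 uM Triacsin C defined 100% inhibition.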", "key": {"[1]": {"conditions": "measured here: lipid fluorescence (Fed channel) AC50, cells fed with added oleic acid"}, "[2]": {"conditions": "measured here: cell number channel AC50, cells fed with added oleic acid"}}, "note": "The other results are listed elsewhere or left out. These are further read-outs of the screen, such as a control signal, another cell line or another target. No call is given for them. Compounds called inactive in the main read-out are mostly missing here. The note in brackets gives the kind of curve behind each potency; many fits are weak.", "data": [{"molecule": "Cc1cc(C(=O)CSc2ccc(F)cc2)cc(C)c1O", "values": [{"measurement": "cell number change", "value": -24, "unit": "%"}, {"measurement": "AC50", "setting": "[1]", "value": "11.6 µM [falling, partial curve]"}]}, {"molecule": "OCC[C@@H]1C[C@@H](O)[C@H](O)[C@@]2(CCCc3ccccc3O2)O1", "values": [{"measurement": "cell number change", "value": 26.3, "unit": "%"}]}, {"molecule": "O=C(O)C1CCN(S(=O)(=O)c2ccc(N3CCC(O)CC3)c([N+](=O)[O-])c2)CC1", "values": [{"measurement": "cell number change", "value": -15.1, "unit": "%"}, {"measurement": "AC50", "setting": "[1]", "value": "29.1 µM [falling, single point]"}]}, {"molecule": "CC(C)c1ccc(/C=N/NC(=O)CC(=O)NCc2ccccc2)cc1", "values": [{"measurement": "cell number change", "value": 16.7, "unit": "%"}]}, {"molecule": "Cc1cc(C)c(S(=O)(=O)Nc2cnc3ccccc3c2)c(C)c1", "values": [{"measurement": "cell number change", "value": 4.17, "unit": "%"}]}, {"molecule": "O=C(O)CCSc1nnc(COc2cccc3cccnc23)n1-c1ccccc1", "values": [{"measurement": "cell number change", "value": -21, "unit": "%"}]}, {"molecule": "CCC1=C2CC[C@H]3C(=O)N(c4ccccc4)C(=O)[C@H]3[C@H]2[C@@]2(C)C(=NCc3ccccc3)OC(=O)N2C1=O", "values": [{"measurement": "cell number change", "value": -27.4, "unit": "%"}, {"measurement": "AC50", "setting": "[1]", "value": "0.82 µM [falling, full curve]"}]}, {"molecule": "CCc1nnc(NC(=O)CCC(=O)N2CCN(c3cc(C)ccc3C)CC2)s1", "values": [{"measurement": "cell number change", "value": -22.9, "unit": "%"}, {"measurement": "AC50", "setting": "[1]", "value": "0.13 µM [falling, full curve, poor fit]"}]}, {"molecule": "Cc1ccc(S(=O)(=O)NCCc2cc3ccc(C)cc3[nH]c2=O)cc1", "values": [{"measurement": "cell number change", "value": -9.21, "unit": "%"}, {"measurement": "AC50", "setting": "[1]", "value": "12.6 µM [falling, single point]"}]}, {"molecule": "COc1cc(/C=N/NC(=O)COc2ccc(Cl)cc2)ccc1OS(=O)(=O)c1ccc(C)cc1", "values": [{"measurement": "cell number change", "value": 7.47, "unit": "%"}, {"measurement": "AC50", "setting": "[1]", "value": "0.92 µM [rising, full curve]"}]}, {"molecule": "Cc1ccc(S(=O)(=O)Nc2ccc(Cl)cc2)cc1NC(=O)c1cc2c(s1)CCCC2", "values": [{"measurement": "cell number change", "value": 22, "unit": "%"}, {"measurement": "AC50", "setting": "[2]", "value": "0.291 µM [rising, single point]"}, {"measurement": "AC50", "setting": "[1]", "value": "0.411 µM [rising, full curve, poor fit]"}]}, {"molecule": "CCOc1cc(/C=C2\\SC(=S)N(Nc3ccccc3)C2=O)ccc1O", "values": [{"measurement": "cell number change", "value": -96.1, "unit": "%"}, {"measurement": "AC50", "setting": "[2]", "value": "29.1 µM [falling, single point]"}, {"measurement": "AC50", "setting": "[1]", "value": "29.1 µM [falling, single point]"}]}, {"molecule": "c1ccc(SCc2nc(-c3ccncc3)no2)cc1", "values": [{"measurement": "cell number change", "value": -24.6, "unit": "%"}, {"measurement": "AC50", "setting": "[1]", "value": "3.26 µM [rising, partial curve]"}]}, {"molecule": "Cc1ccc2[nH]c(=O)c(CNS(=O)(=O)c3ccccc3)c(-c3ccccc3)c2c1", "values": [{"measurement": "cell number change", "value": 6.17, "unit": "%"}, {"measurement": "AC50", "setting": "[1]", "value": "6.51 µM [rising, single point]"}]}, {"molecule": "COc1cc(/C=N/O)cc(Br)c1OCc1cccc(Cl)c1", "values": [{"measurement": "cell number change", "value": -30.3, "unit": "%"}, {"measurement": "AC50", "setting": "[2]", "value": "1.84 µM [falling, full curve, poor fit]"}, {"measurement": "AC50", "setting": "[1]", "value": "2.59 µM [falling, partial curve]"}]}, {"molecule": "O=C(COC(=O)c1cc(=O)[nH]c2ccccc12)NCc1ccc(Cl)cc1", "values": [{"measurement": "cell number change", "value": -28.6, "unit": "%"}, {"measurement": "AC50", "setting": "[1]", "value": "0.82 µM [falling, single point]"}]}, {"molecule": "Cc1ccc(-c2n[nH]c(=O)c3ccccc23)cc1S(=O)(=O)N(C)CCO", "values": [{"measurement": "cell number change", "value": 25.5, "unit": "%"}]}, {"molecule": "Cc1ccc(C2=NCCn3c2c2ccc(C(F)(F)F)cc2[n+]3[O-])cc1", "values": [{"measurement": "cell number change", "value": 13.3, "unit": "%"}, {"measurement": "AC50", "setting": "[1]", "value": "32.6 µM [rising, single point]"}]}, {"molecule": "CCn1c(-c2ccc(N)cc2)nc2ccccc21", "values": [{"measurement": "cell number change", "value": -25.3, "unit": "%"}, {"measurement": "AC50", "setting": "[1]", "value": "23.1 µM [falling, single point]"}]}, {"molecule": "COc1cc(C(=O)NCCOc2ccccc2C)cc(OC)c1OC", "values": [{"measurement": "cell number change", "value": 16.9, "unit": "%"}]}, {"molecule": "CCOc1ccc(C(=O)NCC(=O)N2CCC(C)CC2)cc1OCC", "values": [{"measurement": "cell number change", "value": 123, "unit": "%"}, {"measurement": "AC50", "setting": "[2]", "value": "0.0291 µM [rising, full curve, poor fit]"}]}, {"molecule": "Cc1ccc(OCC(=O)NCc2ccco2)cc1C", "values": [{"measurement": "cell number change", "value": -19, "unit": "%"}]}, {"molecule": "Cc1cc(C(=O)NCCCN2CC(C)CC(C)C2)n(-c2ccccc2)n1", "note": "(configuration not stated)", "values": [{"measurement": "cell number change", "value": 1.45, "unit": "%"}]}, {"molecule": "CN(CC(=O)Nc1cccc(F)c1)C(=O)CCSc1ccc(F)cc1", "values": [{"measurement": "cell number change", "value": 132, "unit": "%"}, {"measurement": "AC50", "setting": "[2]", "value": "18.4 µM [rising, partial curve]"}]}, {"molecule": "O=C(Cc1ccccc1)NNc1ccc2ccccc2c1", "values": [{"measurement": "cell number change", "value": 2.59, "unit": "%"}]}, {"molecule": "CCCN1CCN(S(=O)(=O)c2cn(C)nc2C)CC1", "values": [{"measurement": "cell number change", "value": 3.04, "unit": "%"}, {"measurement": "AC50", "setting": "[1]", "value": "29.1 µM [rising, single point]"}]}, {"molecule": "CCCCOCCOCCOCCCC", "values": [{"measurement": "cell number change", "value": -11.4, "unit": "%"}, {"measurement": "AC50", "setting": "[1]", "value": "3.26 µM [rising, partial curve]"}]}, {"molecule": "CCC(=O)N/N=C/c1ccc(OS(=O)(=O)c2ccccc2)cc1", "values": [{"measurement": "cell number change", "value": 10.7, "unit": "%"}, {"measurement": "AC50", "setting": "[1]", "value": "1.3 µM [rising, partial curve, poor fit]"}]}, {"molecule": "Cc1cccc(N2CN=C3SCC(=O)N3C2)c1", "values": [{"measurement": "cell number change", "value": 26.1, "unit": "%"}, {"measurement": "AC50", "setting": "[1]", "value": "0.13 µM [rising, full curve, poor fit]"}]}, {"molecule": "COc1ccc(/C=C(\\NC(=O)c2ccc(OC)c(OC)c2)C(=O)N2CCN(C)CC2)cc1", "values": [{"measurement": "cell number change", "value": -10.3, "unit": "%"}]}, {"molecule": "CCCCNC(=O)C(CC)(ONc1ccccc1C(F)(F)F)c1ccccc1", "note": "(configuration not stated)", "values": [{"measurement": "cell number change", "value": -84.2, "unit": "%"}, {"measurement": "AC50", "setting": "[2]", "value": "18.4 µM [falling, partial curve]"}, {"measurement": "AC50", "setting": "[1]", "value": "16.4 µM [falling, single point]"}]}, {"molecule": "Nc1nnnn1/N=C/C=C/c1ccccc1", "values": [{"measurement": "cell number change", "value": -38.8, "unit": "%"}, {"measurement": "AC50", "setting": "[2]", "value": "14.6 µM [falling, partial curve, poor fit]"}, {"measurement": "AC50", "setting": "[1]", "value": "29.1 µM [falling, single point]"}]}, {"molecule": "COC(=O)c1ccc2c(c1)SC1=C(CCCC1=O)N2", "values": [{"measurement": "AC50", "setting": "[2]", "value": "6.51 µM [rising, single point]"}, {"measurement": "AC50", "setting": "[1]", "value": "4.61 µM [rising, single point]"}]}, {"molecule": "CCOC(=O)NC(Nc1nnc(SCC)s1)(C(F)(F)F)C(F)(F)F", "values": [{"measurement": "cell number change", "value": -6, "unit": "%"}, {"measurement": "AC50", "setting": "[1]", "value": "29.1 µM [falling, single point]"}]}, {"molecule": "CC(=O)c1ccc(-n2c(CCC(=O)O)ccc2-c2ccccc2)cc1", "values": [{"measurement": "cell number change", "value": 22.8, "unit": "%"}, {"measurement": "AC50", "setting": "[1]", "value": "0.0731 µM [rising, full curve, poor fit]"}]}, {"molecule": "O=C(C1CC1)N1N=C(C2CCCCC2)CC1(O)C(F)(F)F", "note": "(configuration not stated)", "values": [{"measurement": "cell number change", "value": -18.8, "unit": "%"}]}, {"molecule": "Cc1ccc2[nH]c(=O)c(CN3CCCCC3)c(-c3ccccc3)c2c1", "values": [{"measurement": "cell number change", "value": 5.05, "unit": "%"}, {"measurement": "AC50", "setting": "[1]", "value": "4.11 µM [falling, single point]"}]}, {"molecule": "Cc1cc(C(=O)NC2Cc3ccccc3C2)c(C)o1", "values": [{"measurement": "cell number change", "value": -15.2, "unit": "%"}]}, {"molecule": "Cc1ccc(CNC(=O)C2CCN(S(=O)(=O)c3cccc4nonc34)CC2)cc1", "values": [{"measurement": "cell number change", "value": 54.8, "unit": "%"}, {"measurement": "AC50", "setting": "[2]", "value": "10.3 µM [rising, partial curve]"}]}, {"molecule": "COc1cc(/C=N/Nc2nncn2/N=C/c2ccc(O)c(OC)c2)ccc1O", "values": [{"measurement": "cell number change", "value": 11.6, "unit": "%"}, {"measurement": "AC50", "setting": "[2]", "value": "2.06 µM [rising, single point]"}]}, {"molecule": "Cc1cc(C)c(NC(=O)C2CC(=O)N(c3ccc4c(c3)OCCO4)C2)c(C)c1", "note": "(configuration not stated)", "values": [{"measurement": "AC50", "setting": "[2]", "value": "0.206 µM [rising, partial curve]"}, {"measurement": "AC50", "setting": "[1]", "value": "0.82 µM [rising, partial curve]"}]}, {"molecule": "C=C(C)c1cccc(C(C)(C)NC(=O)NC2CCN(Cc3ccccc3)CC2)c1", "values": [{"measurement": "cell number change", "value": 18.7, "unit": "%"}, {"measurement": "AC50", "setting": "[1]", "value": "10.3 µM [rising, partial curve, poor fit]"}]}]}
